# Measured values: ChEMBL document CHEMBL5390203, “Identification of Obscurolide-Type Metabolites and Antifungal Metabolites from the Termite-Associated Streptomyces neopeptinius BYF101” (2023)
# System: Candida albicans
# Experiment: Antifungal activity against Candida albicans SC5314 assessed as fungal growth inhibition incubated for 2 days by broth serial dilution method
# Format: functional
# Settings: SC5314, 48 h, time 2 day
smiles,measurement,value
OC(Cn1cncn1)(Cn1cncn1)c1ccc(F)cc1F [FLUCONAZOLE],MIC,4 µg/mL
